Experiment [1] addresses human CEACAM1 expressed on the cell surface (CEACAM1-Jurkat T cells; HEK293 cells transfected with human CEACAM1 plasmid vector) (human) (UniProt P13688). In words: flow cytometry on CEACAM1-Jurkat T cells, PE goat anti-human F(ab)2, MFI [b]. On the technique in general: In flow cytometry, cells or beads pass a laser one at a time.
The target is the same in experiment [2]. In words: flow cytometry on transfected HEK293 cells (GFP+ gate), PE goat anti-huIgG4 [b].
A further experiment deals with N+A1+B+A2. In words: ELISA on coated CEACAM1 domain protein, one antibody dilution, HRP anti-human IgG, OD450. Background: In an ELISA, binding on a coated surface is turned into a signal by an enzyme label.
The target in experiment [3] is human CEACAM1 expressed on the cell surface (CEACAM1-Jurkat T cells; HEK293 cells transfected with human CEACAM1 plasmid vector) (human) (UniProt P13688). The experiment in a line: flow cytometry on transfected HEK293 cells (GFP+ gate), PE goat anti-huIgG4 [b), lower row].
Experiment [4] has as its target recombinant CEACAM1-Fc (IgG4) protein (Mogam, in-house production) (human) (UniProt P13688). In words: ELISA on coated antigen (0.25 µg/ml), antibody 3 µg/ml, HRP anti-human IgG Fab, OD450.
Experiment [5] has the same target. The experiment in a line: ELISA, coated antigen, anti-human IgG Fab-HRP.

Chains of the proteins cited; added tags and fusions are not shown. Lines headed by an entry give the natural chain unless they say otherwise; changes in a name come on top. Residues count along the entry.
UniProt P13688: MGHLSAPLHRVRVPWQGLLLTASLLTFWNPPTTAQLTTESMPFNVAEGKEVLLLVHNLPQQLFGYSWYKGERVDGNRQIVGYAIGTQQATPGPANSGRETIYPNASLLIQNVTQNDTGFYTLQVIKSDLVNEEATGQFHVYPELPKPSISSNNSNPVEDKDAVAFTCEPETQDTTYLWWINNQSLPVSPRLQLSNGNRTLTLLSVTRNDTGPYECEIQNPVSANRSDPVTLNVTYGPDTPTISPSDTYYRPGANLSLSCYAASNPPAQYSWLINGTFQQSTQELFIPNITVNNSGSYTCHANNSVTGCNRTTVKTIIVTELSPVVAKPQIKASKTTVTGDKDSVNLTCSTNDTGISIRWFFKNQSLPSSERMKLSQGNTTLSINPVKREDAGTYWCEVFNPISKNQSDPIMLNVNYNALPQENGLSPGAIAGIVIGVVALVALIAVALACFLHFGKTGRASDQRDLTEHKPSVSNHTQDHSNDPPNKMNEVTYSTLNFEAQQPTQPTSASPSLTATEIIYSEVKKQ
recombinant CEACAM1-Fc (IgG4) protein (Mogam, in-house production): residues 35-428 of P13688

Residue numbers refer to the chain shown, from its start. No constants are given. Whether binding was seen depends on the method and setting. Some results given as binding are weak or reduced against the parent protein; the word gives no strength.

B1: 4R9 (antibody, human IgG4 S228P, lambda, V domains shown)
VH: EVQLLESGGGLVQPGGSLRLSCAASGFTFSNYAMSWVRQAPGKGLEWVSVISHGGGSIYYADSVKGRLTISRDNSKNTLYLQMNSLRAEDTAVYYCARDPTKGYAPTFDYWGQGTLVTVSS
VL: QSVLTQPPSASGTPGQRVTISCSGSSSNIGNNYVSWYQQLPGTAPKLLIYADSRRPSGVPDRFSGSKSGTSASLAISGLRSEDEADYYCGAWDLSLNGYVFGGGTKLTVLG
Turning to B1, the binding entry (in experiment [1]; in experiment [2]; with N+A1+B+A2; in experiment [3]) was “binds” each time.

B2: 1-19 (antibody, human IgG4 S228P, lambda, V domains shown)
VH: B1 VH
VL: B1 VL with R54K
For B2, the binding result in the experiment with N+A1+B+A2 is on record as “binds”.

B3: 1-23 (antibody, human IgG4 S228P, lambda, V domains shown)
VH: B1 VH
VL: B1 VL with R54K, L94V, L96H
Turning to B3, in the experiment with N+A1+B+A2, the binding entry is on record as “binds”.

B4: 4R9_H4-n20 (antibody, human IgG4 S228P, lambda, V domains shown)
VH: B1 VH with T28N
VL: B1 VL
Turning to B4, the binding entry in experiment [1], in experiment [2] and in experiment [3] was “binds” each time.

B5: C15 (antibody, human IgG4 S228P, lambda, V domains shown)
VH: EVQLLESGGGLVQPGGSLRLSCAASGFTFSSYSMSWVRQAPGKGLEWVSSISPNGGNKYYADSVKGRFTISRDNSKNTLYLQMNSLGAEDTAVYYCAKDPYNIYQPLFDYWGQGTLVTVSS
VL: B1 VL with P8L, S35N, D52N, R54N, D83E, A91T, L94A, N97S, G98A
For B5, the binding entry in experiment [4] and in experiment [5] was “binds” throughout.

B6: 3-27 (antibody, human IgG4 S228P, lambda, V domains shown)
VH: B1 VH
VL: B1 VL with R54K, L94S, S95M, L96G
In the case of B6, in the experiment with N+A1+B+A2, the binding result is “binds”.

B7: 3-7 (antibody, human IgG4 S228P, lambda, V domains shown)
VH: B1 VH
VL: B1 VL with R54K, L94Q
Consider B7, for which the binding result with N+A1+B+A2 is “binds”.

B8: 4R26 (antibody, human IgG4 S228P, lambda, V domains shown)
VH: B1 VH
VL: B1 VL with R54K, P56L, L94G, S95R
On to B8, for which the binding entry (in experiment [1]; in experiment [2]; with N+A1+B+A2; in experiment [3]) was “binds” each time.

B9: 4R20 (antibody, human IgG4 S228P, lambda, V domains shown)
VH: B1 VH
VL: B1 VL with L94A, L96Y
In the case of B9, the binding result with N+A1+B+A2 is on record as “binds”.

B10: 4R9_H2-2 (antibody, human IgG4 S228P, lambda, V domains shown)
VH: B1 VH with T107L
VL: B1 VL
Regarding B10, the binding result in experiment [1], in experiment [2] and in experiment [3] was “binds” in each case.

These data come from patent US20200109196A1.
